# Source: the supplement of paper PMC8728848
# The other results are listed elsewhere or left out.
# B1: FimA (Actinomyces oris) (protein)
# chain: MHHHHHHSSGVDLGTENLYFQSNAETPNYGNIKTDATGSLVIHKHLTGGGKDIGTPTGTAQNADDKGPAVEGVVFTAYPITDINLKDPAGWDTISNLSRTGVPDSACANPAAPTLGAHQFGTPKVSPATTKEGLATITEMPVQAYLVCETTTPGDIVQKAKPFVVTIPHPNTAAGADGQWIYDVNVYPKNEAIDVDKTIQAQKLNGYGVGSLIKFPVESTAPTLDAKSFYKYFQLKDTLDERLSEVTATDVSLEGTPLQPTDYKVETKQQTVTVTFTAEGLKKIKAAPGKKVSAVFQGKVTKAGNGAITNRAQVISDTLYAEQPPTPETPPTDPENPPTSDEVISRWGDLSIKKVDTHQQGQTKAGLQGAQFQLYKAKNAYANTCSNEKEGAPIAINGQTTLTTDAQGAIDIKGLFISDSIDGADRDNQVNAMERCYVLVETKAPAGYVLPAGNGAATPVKVKAGEETTDNVTVENTKQSVPGLPLTG
# Experiments:
# Test in all cases: glycan array binding signal (z-score within array); higher = stronger binding
# Details in all cases: glycan notation: IUPAC condensed, linker removed
# [1] = molecular target: Neu5Ac(a2-3)Gal(b1-3)GalNAc
# In short: (§1)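 Negative Z-scores can be read as non-binding. The Z-score is calculated within each array and then averaged across arrays of one protein sequence at different concentrations or buffers and across linkers. Arrays, 3228 in all, were curated from the Consortium for Functional Glycomics database and kept only where the protein sequence was available.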
# [2] = molecular target: Neu5Ac(a2-3)Gal(b1-3)GalNAc(b1-3)Gal(a1-4)Gal(b1-4)Glc
# In short: as §1
# [3] = molecular target: Neu5Ac(a2-3)Gal(b1-3)GalNAc(b1-4)[Neu5Ac(a2-3)]Gal(b1-4)Glc
# In short: as §1
# [4] = molecular target: Neu5Ac(a2-3)Gal(b1-3)GalNAc(b1-4)[Neu5Ac(a2-8)Neu5Ac(a2-3)]Gal(b1-4)Glc
# In short: as §1
# [5] = molecular target: Neu5Ac(a2-3)Gal(b1-3)GalNAc6S
# In short: as §1
# [6] = molecular target: Neu5Ac(a2-3)Gal(b1-3)GlcNAc
# In short: as §1
# [7] = molecular target: Neu5Ac(a2-3)Gal(b1-3)GlcNAc(b1-2)Man
# In short: as §1
# [8] = molecular target: Neu5Ac(a2-3)Gal(b1-3)GlcNAc(b1-2)Man(a1-3)[GlcNAc(b1-4)][Neu5Ac(a2-3)Gal(b1-3)GlcNAc(b1-2)Man(a1-6)]Man(b1-4)GlcNAc(b1-4)GlcNAc
# In short: as §1
# [9] = molecular target: Neu5Ac(a2-3)Gal(b1-3)GlcNAc(b1-2)Man(a1-3)[Neu5Ac(a2-3)Gal(b1-3)GlcNAc(b1-2)Man(a1-6)]Man(b1-4)GlcNAc(b1-4)GlcNAc
# In short: as §1
# [10] = molecular target: Neu5Ac(a2-3)Gal(b1-3)GlcNAc(b1-3)Gal(b1-3)GlcNAc
# In short: as §1
# [11] = molecular target: Neu5Ac(a2-3)Gal(b1-3)GlcNAc(b1-3)Gal(b1-4)GlcNAc
# In short: as §1
# [12] = molecular target: Neu5Ac(a2-3)Gal(b1-3)GlcNAc(b1-3)GalNAc
# In short: as §1
# [13] = molecular target: Neu5Ac(a2-3)Gal(b1-3)GlcNAc(b1-4)Gal(b1-4)Glc
# In short: as §1
# [14] = molecular target: Neu5Ac(a2-3)Gal(b1-3)GlcNAc(b1-6)GalNAc
# In short: as §1
# [15] = molecular target: Neu5Ac(a2-3)Gal(b1-3)GlcNAc6S
# In short: as §1
# [16] = molecular target: Neu5Ac(a2-3)Gal(b1-3)[Fuc(a1-4)]GlcNAc
# In short: as §1
# [17] = molecular target: Neu5Ac(a2-3)Gal(b1-3)[Fuc(a1-4)]GlcNAc(b1-3)Gal(b1-3)[Fuc(a1-4)]GlcNAc
# In short: as §1
# [18] = molecular target: Neu5Ac(a2-3)Gal(b1-3)[Fuc(a1-4)]GlcNAc(b1-3)Gal(b1-4)[Fuc(a1-3)]GlcNAc
# In short: as §1
# [19] = molecular target: Neu5Ac(a2-3)Gal(b1-3)[GlcNAc(b1-6)]GalNAc
# In short: as §1
# [20] = molecular target: Neu5Ac(a2-3)Gal(b1-3)[Neu5Ac(a2-6)]GalNAc
# In short: as §1
# [21] = molecular target: Neu5Ac(a2-3)Gal(b1-3)[Neu5Ac(a2-6)]GlcNAc(b1-3)[Fuc(a1-3)[Gal(b1-4)]GlcNAc(b1-6)]Gal(b1-4)Glc
# In short: as §1
# [22] = molecular target: Neu5Ac(a2-3)Gal(b1-3)]Neu5Ac(a2-3)Gal(b1-4)]GlcNAc
# In short: as §1
# Neu5Ac(a2-3)Gal(b1-4)Glc = molecular target: Neu5Ac(a2-3)Gal(b1-4)Glc
# In short: as §1
# [23] = molecular target: Neu5Ac(a2-3)Gal(b1-4)GlcNAc
# In short: as §1
# [24] = molecular target: Neu5Ac(a2-3)Gal(b1-4)GlcNAc(b1-2)Man
# In short: as §1
# [25] = molecular target: Neu5Ac(a2-3)Gal(b1-4)GlcNAc(b1-2)Man(a1-3)[GlcNAc(b1-4)][Neu5Ac(a2-3)Gal(b1-4)GlcNAc(b1-2)Man(a1-6)]Man(b1-4)GlcNAc(b1-4)GlcNAc
# In short: as §1
# [26] = molecular target: Neu5Ac(a2-3)Gal(b1-4)GlcNAc(b1-2)Man(a1-3)[Neu5Ac(a2-3)Gal(b1-4)GlcNAc(b1-2)Man(a1-6)]Man(b1-4)GlcNAc(b1-4)GlcNAc
# In short: as §1
# [27] = molecular target: Neu5Ac(a2-3)Gal(b1-4)GlcNAc(b1-2)Man(a1-3)[Neu5Ac(a2-3)Gal(b1-4)GlcNAc(b1-2)Man(a1-6)]Man(b1-4)GlcNAc(b1-4)[Fuc(a1-6)]GlcNAc
# In short: as §1
# [28] = molecular target: Neu5Ac(a2-3)Gal(b1-4)GlcNAc(b1-2)Man(a1-3)[Neu5Ac(a2-6)Gal(b1-4)GlcNAc(b1-2)Man(a1-6)]Man(b1-4)GlcNAc(b1-4)GlcNAc
# In short: as §1
# [29] = molecular target: Neu5Ac(a2-3)Gal(b1-4)GlcNAc(b1-2)[Neu5Ac(a2-3)Gal(b1-4)GlcNAc(b1-4)]Man(a1-3)[GlcNAc(b1-4)][Neu5Ac(a2-3)Gal(b1-4)GlcNAc(b1-2)[Neu5Ac(a2-3)Gal(b1-4)GlcNAc(b1-6)]Man(a1-6)]Man(b1-4)GlcNAc(b1-4)GlcNAc
# In short: as §1
# [30] = molecular target: Neu5Ac(a2-3)Gal(b1-4)GlcNAc(b1-2)[Neu5Ac(a2-3)Gal(b1-4)GlcNAc(b1-4)]Man(a1-3)[GlcNAc(b1-4)][Neu5Ac(a2-3)Gal(b1-4)GlcNAc(b1-4)Man(a1-6)]Man(b1-4)GlcNAc(b1-4)GlcNAc
# In short: as §1
# [31] = molecular target: Neu5Ac(a2-3)Gal(b1-4)GlcNAc(b1-2)[Neu5Ac(a2-3)Gal(b1-4)GlcNAc(b1-6)]Man(a1-6)[Neu5Ac(a2-3)Gal(b1-4)GlcNAc(b1-2)Man(a1-3)]Man(b1-4)GlcNAc(b1-4)GlcNAc
# In short: as §1
# [32] = molecular target: Neu5Ac(a2-3)Gal(b1-4)GlcNAc(b1-2)[Neu5Ac(a2-3)Gal(b1-4)GlcNAc(b1-6)]Man(a1-6)[Neu5Ac(a2-3)Gal(b1-4)GlcNAc(b1-2)Man(a1-3)][GlcNAc(b1-4)]Man(b1-4)GlcNAc(b1-4)GlcNAc
# In short: as §1
# [33] = molecular target: Neu5Ac(a2-3)Gal(b1-4)GlcNAc(b1-3)Gal
# In short: as §1
# [34] = molecular target: Neu5Ac(a2-3)Gal(b1-4)GlcNAc(b1-3)Gal(b1-3)GlcNAc
# In short: as §1
# [35] = molecular target: Neu5Ac(a2-3)Gal(b1-4)GlcNAc(b1-3)Gal(b1-4)GlcNAc
# In short: as §1
# [36] = molecular target: Neu5Ac(a2-3)Gal(b1-4)GlcNAc(b1-3)Gal(b1-4)GlcNAc(b1-2)Man(a1-3)[Neu5Ac(a2-3)Gal(b1-4)GlcNAc(b1-3)Gal(b1-4)GlcNAc(b1-2)Man(a1-6)]Man(b1-4)GlcNAc(b1-4)GlcNAc
# In short: as §1
binder,measurement,setting,value
B1,glycan array binding signal (z-score),[1],0.797
same,glycan array binding signal (z-score),[2],0.229
same,glycan array binding signal (z-score),[3],-0.196
same,glycan array binding signal (z-score),[4],-0.32
same,glycan array binding signal (z-score),[5],-0.76
same,glycan array binding signal (z-score),[6],-0.291
same,glycan array binding signal (z-score),[7],0.847
same,glycan array binding signal (z-score),[8],-0.298
same,glycan array binding signal (z-score),[9],-0.233
same,glycan array binding signal (z-score),[10],-0.254
same,glycan array binding signal (z-score),[11],-0.513
same,glycan array binding signal (z-score),[12],-0.515
same,glycan array binding signal (z-score),[13],0.409
same,glycan array binding signal (z-score),[14],-0.778
same,glycan array binding signal (z-score),[15],-0.22
same,glycan array binding signal (z-score),[16],2.89
same,glycan array binding signal (z-score),[17],-0.284
same,glycan array binding signal (z-score),[18],0.196
same,glycan array binding signal (z-score),[19],-0.273
same,glycan array binding signal (z-score),[20],-0.09
same,glycan array binding signal (z-score),[21],-0.358
same,glycan array binding signal (z-score),[22],-0.537
same,glycan array binding signal (z-score),Neu5Ac(a2-3)Gal(b1-4)Glc,-0.06
same,glycan array binding signal (z-score),[23],-0.025
same,glycan array binding signal (z-score),[24],-0.543
same,glycan array binding signal (z-score),[25],-0.312
same,glycan array binding signal (z-score),[26],-0.315
same,glycan array binding signal (z-score),[27],-0.389
same,glycan array binding signal (z-score),[28],-0.809
same,glycan array binding signal (z-score),[29],0.563
same,glycan array binding signal (z-score),[30],-0.539
same,glycan array binding signal (z-score),[31],-0.142
same,glycan array binding signal (z-score),[32],-0.527
same,glycan array binding signal (z-score),[33],0.18
same,glycan array binding signal (z-score),[34],-0.592
same,glycan array binding signal (z-score),[35],1.8
same,glycan array binding signal (z-score),[36],0.642
